Results reported in patent US9018156B2, “Organic nanotube having hydrophobized inner surface, and encapsulated medicinal agent prepared using the nanotube” (National Institute of Advanced Industrial Science and …, priority 2011, dated 2015).

Test system: HeLa cells
Assay: Cytotoxicity evaluation of drug composition in vitro (WST-8 assay)
Assay type: cell-based
Conditions: Homo sapiens, cultured 24 hours at 37° C., tube/Dox molar ratio 7, read-out: IC50 (half maximal inhibitor concentration)
Procedure: Toxicity evaluation may be performed by adding and culturing encapsulated doxorubicin in various asymmetric nanotubes using HeLa cells and evaluating the number of cells. Comparison with doxorubicin itself and evaluation of nanotube itself may be performed by the same method.
Cytotoxicity of various asymmetric nanotubes encapsulating doxorubicin obtained in Example 8 was evaluated as follows. That is, HeLa cells (1×10^4) and various nanotubes encapsulating doxorubicin obtained in Example 8 were added into a 96-well plate so that concentrations of doxorubicin became equal to each other, using a Dulbecco's modified eagle medium (DMEM) added with fetal bovine serum (10%) as a cell culture medium for encapsulation and cultured at 37° C. under 5% CO2 atmosphere for 24 hours. The concentration of doxorubicin was 0.01 to 20 μg/mL. Further, a molar ratio (Compound 1/Dox) of the tube to doxorubicin in the used encapsulation body was 7. As a control experiment, the same experiment was performed on doxorubicin. After culture, the supernatant was removed, and the obtained cells was washed with a PBS buffer (pH 7.4). Thereafter, cell viability was investigated through WST-8 assay, thereby calculating the half maximal inhibitor concentration (IC50). […]

SMILES: COc1cccc2c1C(=O)c1c(O)c3c(c(O)c1C2=O)C[C@@](O)(C(=O)CO)C[C@@H]3O[C@H]1C[C@H](N)[C@H](O)[C@H](C)O1 [Dox, doxorubicin]
- IC50: 0.91 ± 0.12 µg/mL
